Plain letter strings leave the end groups untold.
Assay: peptide synthesis
Details: whole synthesis

Sequence: DQSRPVQPFLNLTTPRKPRPPRRRQRRKKRG
- purity (crude or final not stated): 95.28%

From patent US11779628B2 (Xigen Inflammation Ltd., priority 2014, dated 2023)
